{"source": "PubChem BioAssay AID250", "about": "(DTP/NCI, 2004)", "test_system": "BDF1 mice, L1210 leukemia sc", "assay": "NCI In Vivo Anticancer Drug Screen. Data for tumor model L1210 Leukemia (subcutaneous) in B6D2F1 (BDF1) mice", "details": "T/C endpoint: median survival time, higher T/C = longer survival", "procedure,_shortened": "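Transplantable tumor-bearing mice; survival or tumor size recorded; result = T/C, treated vs vehicle control.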", "key": {"[1]": {"details": "dose: 39.0 mg/kg/injection, schedule: Q01DX Z (sc), vehicle: methylcellulose (MC)"}, "[2]": {"details": "dose: 180.0 mg/kg/injection, schedule: Q01DX Z (sc), vehicle: methylcellulose (MC)"}, "[3]": {"details": "dose: 300.0 mg/kg/injection, schedule: Q01DX Z (sc), vehicle: methylcellulose (MC)"}}, "note": "The list shows only some results of the screen, not a fair sample: it is rich in T/C values a quarter to a half above the control, in often repeated tests (any T/C) and in doses without a T/C. Other doses and runs of a compound stand elsewhere. T/C is the treated group as % of the vehicle group. Where survival is the endpoint, this PubChem deposit counts one and a half times the control or more as active, and values a quarter to a half above the control carry no call in these data; other NCI protocols may use other cut-offs. Schedule codes are those of the source, read here as Q, the interval in days (D) or hours (H), X, the number of doses. Some schedule codes hold Z or #, which are not explained here. Some doses were run more than once; their values stand side by side, smallest first. Some T/C values carry the count of animals alive at the toxicity check (mostly the fifth day); without a count, all were alive then."}
{"smiles": "Cn1cnc([N+](=O)[O-])c1Sc1nc(N)nc2nc[nH]c12", "values": [{"measurement": "T/C", "setting": "dose: 6.0 mg/kg/injection, schedule: Q01DX Z (sc), vehicle: methylcellulose (MC)", "result": "127 and 140 % of control"}, {"measurement": "T/C", "setting": "dose: 8.4 mg/kg/injection, schedule: Q01DX Z (sc), vehicle: methylcellulose (MC)", "result": "145 % of control [9 of 10 alive]"}, {"measurement": "T/C", "setting": "dose: 14.0 mg/kg/injection, schedule: Q01DX Z (sc), vehicle: methylcellulose (MC)", "result": "145 % of control"}, {"measurement": "T/C", "setting": "dose: 23.0 mg/kg/injection, schedule: Q01DX Z (oral), vehicle: methylcellulose (MC)", "result": "131 % of control"}, {"measurement": "T/C", "setting": "dose: 23.0 mg/kg/injection, schedule: Q01DX Z (sc), vehicle: methylcellulose (MC)", "result": "140 % of control [8 of 10 alive]"}, {"measurement": "T/C", "setting": "dose: 39.0 mg/kg/injection, schedule: Q01DX Z (oral), vehicle: methylcellulose (MC)", "result": "140 % of control [8 of 10 alive]"}, {"measurement": "T/C", "setting": "[1]", "result": "145 % of control"}, {"measurement": "T/C", "setting": "dose: 47.0 mg/kg/injection, schedule: Q01DX Z (sc), vehicle: methylcellulose (MC)", "result": "127 % of control"}, {"measurement": "T/C", "setting": "dose: 65.0 mg/kg/injection, schedule: Q01DX Z (sc), vehicle: methylcellulose (MC)", "result": "145 % of control"}, {"measurement": "T/C", "setting": "dose: 78.0 mg/kg/injection, schedule: Q01DX Z (sc), vehicle: methylcellulose (MC)", "result": "127 % of control"}, {"measurement": "T/C", "setting": "dose: 108.0 mg/kg/injection, schedule: Q01DX Z (sc), vehicle: methylcellulose (MC)", "result": "136 % of control"}, {"measurement": "T/C", "setting": "dose: 180.0 mg/kg/injection, schedule: Q01DX Z (oral), vehicle: methylcellulose (MC)", "result": "145 % of control"}, {"measurement": "T/C", "setting": "[2]", "result": "127 % of control"}, {"measurement": "T/C", "setting": "dose: 300.0 mg/kg/injection, schedule: Q01DX Z (oral), vehicle: methylcellulose (MC)", "result": "140 % of control"}, {"measurement": "T/C", "setting": "dose: 500.0 mg/kg/injection, schedule: Q01DX Z (oral), vehicle: methylcellulose (MC)", "result": "127 % of control"}]}
{"smiles": "CN(C)c1ccc(Nc2c3ccccc3nc3ccccc23)cc1", "values": [{"measurement": "T/C", "setting": "dose: 720.0 mg/kg/injection, schedule: Q01DX Z (sc), vehicle: saline", "result": "140 % of control"}]}
{"smiles": "O=P(N1CCOCC1)(N1CC1)N1CC1", "values": [{"measurement": "T/C", "setting": "dose: 39.0 mg/kg/injection, schedule: Q01DX Z (sc), vehicle: saline", "result": "140 and 145 % of control"}, {"measurement": "T/C", "setting": "dose: 65.0 mg/kg/injection, schedule: Q01DX Z (sc), vehicle: saline", "result": "130 % of control"}]}
{"smiles": "O[C@H](CN1CC1)[C@@H](O)CN1CC1", "values": [{"measurement": "T/C", "setting": "dose: 0.36 mg/kg/injection, schedule: Q01DX Z (sc), vehicle: saline", "result": "133 % of control"}, {"measurement": "T/C", "setting": "dose: 0.39 mg/kg/injection, schedule: Q01DX Z (sc), vehicle: saline", "result": "138 % of control"}, {"measurement": "T/C", "setting": "dose: 1.7 mg/kg/injection, schedule: Q01DX Z (sc), vehicle: saline", "result": "133 % of control"}, {"measurement": "T/C", "setting": "dose: 1.8 mg/kg/injection, schedule: Q01DX Z (sc), vehicle: saline", "result": "133 % of control"}]}
{"smiles": "O=NN(CCF)C(=O)NC12CC3CC(CC(C3)C1)C2", "values": [{"measurement": "T/C", "setting": "dose: 39.0 mg/kg/injection, schedule: Q01DX Z (sc), vehicle: carboxymethylcellulose (CMC)", "result": "138 % of control"}]}
{"smiles": "CC(C)Sc1ncnc2nc[nH]c12", "values": [{"measurement": "T/C", "setting": "[2]", "result": "145 % of control"}, {"measurement": "T/C", "setting": "[3]", "result": "135 % of control"}]}
{"smiles": "O=C(Nc1ccc(C2=NCCCN2)cc1)c1ccc(C(=O)Nc2ccc(C3=NCCCN3)cc2)cc1", "values": [{"measurement": "T/C", "setting": "[1]", "result": "140 % of control"}]}
{"smiles": "CCC(C)SC1=NC=NC2=NC=NC21", "note": "(configuration not stated)", "values": [{"measurement": "T/C", "setting": "dose: 64.8 mg/kg/injection, schedule: Q01DX Z (sc), vehicle: methylcellulose (MC)", "result": "136 % of control"}, {"measurement": "T/C", "setting": "[2]", "result": "140 % of control"}, {"measurement": "T/C", "setting": "[3]", "result": "127 % of control"}]}
{"smiles": "Nc1nc(N)c2nc(CNc3ccc(C(=O)NC(CCC(=O)O)C(=O)O)cc3)cnc2n1", "note": "(configuration not stated)", "values": [{"measurement": "T/C", "setting": "dose: 0.12 mg/kg/injection, schedule: Q01DX Z (sc), vehicle: other", "result": "140 % of control [8 of 10 alive]"}, {"measurement": "T/C", "setting": "dose: 0.18 mg/kg/injection, schedule: Q01DX Z (sc), vehicle: other", "result": "140 % of control"}, {"measurement": "T/C", "setting": "dose: 0.26 mg/kg/injection, schedule: Q01DX Z (sc), vehicle: other", "result": "135 % of control"}]}
